# Data taken from the supplement of paper PMC6445147.
# Values scatter widely in this assay.
# B1: human tRNA-Pro; a variant is named by its letters at N, in order (parent)
# chain: GGCTCGTTGGTCTAGNGGTATGATTCTCGCTTAGGGTGCGAGAGGTCCCGGGTTCNNATCCCGGACGAGCCC
# Variants of: B1
# Assay: tRNA 3' processing efficiency (processed reads / all reads, maximum-likelihood estimate) (fraction); higher = more efficient 3' processing
# Conditions: HEK293T; construct: no Pol-II promoter ((-)CMV library)
row,Variant,tRNA 3' processing efficiency
1,GGA T19C A20T C55T A58G T59C,0.17
2,TCA T53A T59C,0.17
3,GGA G15A T19A C55T A58T,0.57
4,AGA A20G C55T,0.25
5,TGA T19A T53G,0.17
6,GGA T8C T53G A58G T59G,0.17
7,GGA T8C G15C A58T,0.33
8,TGA A33G A58T,0.99
9,AGA A14T T54A C55T T59A,0.4
10,TAT G51A,0.57
11,GGA A14C G15C A20G C55A A58T,0.4
12,GGA A14G T53A T54A,0.16
13,GAT T8C A14G T59G,0.33
14,CAT T19A A20T A58G,0.17
15,AGC A20C,0.5
16,GGA T8C T19A A58T,0.73
17,GGA A20C T53A T59C,0.1
18,TGA T19G T53G A58G,0.2
19,GCA G9T T19A A20T,0.4
20,GGA G9A G15T G18A A20T T59G,0.25
21,AGC G15T A20T,0.25
22,TGA C55G A58T T59G,0.25
23,GGA G17T G18A T19A A20T A58C,0.4
24,TGA A14G G17A C55G T59C,0.43

row,Variant,tRNA 3' processing efficiency
1,CAT T8C A14C A58G,0.5
2,GCC A14T T19A A58G,0.2
3,CCA A58C,0.25
4,TCC G17C,0.25
5,TCG A14T A20T,0.25
6,TGA G18C T19C C55T,0.57
7,GGA G15T G17T T53A A58G,0.2
8,GGA G18A T53G T54A,0.2
9,TGA T19A A20C T53A T54A C55A,0.25
10,GGA A14G A20T T54A,0.5
11,AGA A14T C55G A58T,0.56
12,CCA G9T T19A,0.17
13,TCA A20G A58C,0.2
14,GGA A14T T53A A58G,0.25
15,GGA T19C T54A C55T,0.33
16,TGA A14T C55G A58G,0.25
17,GGA A33G A58T,0.7
18,GGA A14C G15A G17A T19C T53C,0.4
19,GGA G9A T19A C55T,0.17
20,TGA G17T C55T T59C,0.4
21,GCA T7A T19C A58G,0.4
22,GGA G9A A14T T59C,0.44
23,GGC A14T T53A,0.25
24,GAT T8C G10C,0.4

row,Variant,tRNA 3' processing efficiency
1,CGA A20C T53G A58T,0.43
2,GGA T8C T54A T59C,0.29
3,CCA A14C T19G,0.4
4,TGC G9T,0.5
5,GGA G9A G17A A58C,0.33
6,GCA A14C A58G,0.33
7,GGA G15C A20T T53G,0.25
8,AGA T8G A58C,0.2
9,CCA A20G T59A,0.23
10,AGA T53G A58G,0.5
11,CCA T8C G38A A58G,0.25
12,GAT T8C T19A T59G,0.43
13,ACA A14G T19G A58G,0.43
14,TGC A58G,0.07
15,GGA T8A G15T G17T C55A,0.4
16,AGA A14T T54C A58C,0.5
17,GGA A14T A33G A58T,0.5
18,GCA A14T A20T A58T,0.5
19,GGA T8A A14C G17T,0.62
20,CAT T19A A58C,0.43
21,GGA G50C A58G,0.2
22,TGA A58C T59G,0.83
23,CGA A14T T19A T54A,0.29
24,TCA G15T G22A T59G,0.25

row,Variant,tRNA 3' processing efficiency
1,GGC T8C T59G,0.64
2,GGA G15A A33G,0.25
3,CGA A14T T54G C55T A58C,0.25
4,CGA G9A A20G A33G A58T,0.62
5,AGA A20G T54A,0.69
6,GGA A14C T54A,0.08
7,TCA A20T T53A,0.4
8,GCA T8C A14C T53A,0.2
9,GGA T53C C55T A58C,0.5
10,GCT T27C,0.43
11,TCA A14G A58C,0.25
12,TGA T19G T53G,0.06
13,GGA A20T C55T T59A,0.62
14,GCG T32C,0.67
15,TCA T19A T59A,0.2
16,TCA T19A T59G,0.83
17,ACA T19G T59G,0.4
18,GAT T19A A20C A58T,0.4
19,CCA G9C T19A,0.56
20,GGA A14T A20C T53G,0.29
21,GGA G9C T59C,0.25
22,TGA T54A T59C,0.13
23,GAT T8C A14G A58G,0.5
24,GGA G9A A14G T19G T59G,0.17

row,Variant,tRNA 3' processing efficiency
1,GCA A23T C55G,0.62
2,GGA A14C G18T T19C T53A,0.57
3,GGA T8G G15T T19G A58G,0.25
4,GGG A14C G15T A58T,0.56
5,GGA G15A A33G A58T,0.33
6,GGA G10A G15A,0.33
7,GCC G15C G17T,0.5
8,GAT T46C,0.57
9,TGC G15T,0.2
10,CAT T19C T59G,0.33
11,TGA G15T T53G T59A,0.33
12,TGA A14C G18C A58T,0.25
13,TGA A14G T53A T59G,0.5
14,TGA T19G C55T,0.43
15,CCA T19A A58T,0.4
16,GGA T19G T53A T59G,0.5
17,GGA G1A T8C,0.84
18,GGA G9A A14G A58C,0.4
19,GGA A20C T53A A58T T59C,0.62
20,CCA G15C A20C A58G T59G,0.33
21,GGA T19A A20T A58C T59A,0.43
22,GGC A14T A58G,0.25
23,GGA A14T T19C A58T T59G,0.4
24,TCA A58G T59A,0.75

# Laid out differently: entries from further up
row	Variant	tRNA 3' processing efficiency
20	CCA G15C A20C A58G T59G	0.33
21	GGA T19A A20T A58C T59A	0.43
22	GGC A14T A58G	0.25

# Additional results.

row,Variant,tRNA 3' processing efficiency
1,GGA T19G C55G A58G,0.38
2,GGA T19G C55G A58T,0.33
3,GGA G15C T19A C55T A58C,0.11
4,TGA G17A A58C,0.6
5,CAT G50A T59A,0.32
6,TCT A20T,0.2
7,CGC T8C A20T,0.43
8,GGA A14G G15C C55G,0.5
9,GGA A14G G17A A58T,0.25
10,GCA G9C G50T,0.25
11,CAT T19A A20C T59C,0.25
12,GGA G18A A58T T59A,0.25
13,GCA T8G A14T G17T G18T T19G A20T,0.17
14,CCA A14G A20G,0.4
15,GGA A33G,0.33
16,GGA G15C T53C,0.33
17,GAT T19A C28T T59G,0.25
18,CGA T53A A58T T59C,0.2
19,AGA G15A T19G A58G T59G,0.73
20,GGA A14T T19C A20T A58T,0.17
21,GGA A14C G34T T54A,0.5
22,GCA T8G G9A G17A T59A,0.25
23,GGC A14G C55T,0.25
24,GCA T19A G36A A58T,0.5

# Retrieved one by one from above:
row,Variant,tRNA 3' processing efficiency
12,GGA G18A A58T T59A,0.25
7,CGC T8C A20T,0.43
17,GAT T19A C28T T59G,0.25
5,CAT G50A T59A,0.32
21,GGA A14C G34T T54A,0.5
16,GGA G15C T53C,0.33
6,TCT A20T,0.2

# The results go on:

row,Variant,tRNA 3' processing efficiency
1,GGA C55T A58T T59C,0.25
2,GAT T19A A58C T59G,0.25
3,GGA T53A A58T T59C,0.15
4,TGA A20T C55T A58T,0.4
5,GCA T8A G17T A58T T59C,0.33
6,GGA G9A T53G T59A,0.57
7,GGA A23T C55G,0.25
8,GCA G2C C3T C5A,0.25
9,GGA A14C T19A C55T A58G,0.33
10,GGA T8G T19C A58G T59A,0.4
11,GGA A14T T19G T59G,0.2
12,GGA A14C G17C T19G A20T A58G,0.25
13,GGA G15C T53G A58G T59G,0.2
14,GCA A14T G15T G18A,0.33
15,GGC T19G T53A A58G T59G,0.2
16,GGA G15A T19A T53A T59A,0.33
17,GAT T8C A58T T59C,0.5
18,GGA A14C G15C A58C,0.17
19,AGC T59G,0.17
20,GGA G15T G17T T53A,0.25
21,CCA A20T C71T,0.4
22,GGA G17T T53C T54A,0.25

# Variants of: B1
# Assay: tRNA 5' processing efficiency (processed reads / all reads, maximum-likelihood estimate) (fraction); higher = more efficient 5' processing
# Conditions: HEK293T; construct: CMV Pol-II promoter ((+)CMV library, decapped)
row,Variant,tRNA 5' processing efficiency
1,CCA A58C,0.25
2,GGA G9C T59C,0.17
